No constants are given. Whether binding was seen depends on the method and setting. Some results given as binding are weak or reduced against the parent protein; the word gives no strength.
Target: T1, KIF4A (kinesin), unlabeled (human) (UniProt O95239)
T1 sequence: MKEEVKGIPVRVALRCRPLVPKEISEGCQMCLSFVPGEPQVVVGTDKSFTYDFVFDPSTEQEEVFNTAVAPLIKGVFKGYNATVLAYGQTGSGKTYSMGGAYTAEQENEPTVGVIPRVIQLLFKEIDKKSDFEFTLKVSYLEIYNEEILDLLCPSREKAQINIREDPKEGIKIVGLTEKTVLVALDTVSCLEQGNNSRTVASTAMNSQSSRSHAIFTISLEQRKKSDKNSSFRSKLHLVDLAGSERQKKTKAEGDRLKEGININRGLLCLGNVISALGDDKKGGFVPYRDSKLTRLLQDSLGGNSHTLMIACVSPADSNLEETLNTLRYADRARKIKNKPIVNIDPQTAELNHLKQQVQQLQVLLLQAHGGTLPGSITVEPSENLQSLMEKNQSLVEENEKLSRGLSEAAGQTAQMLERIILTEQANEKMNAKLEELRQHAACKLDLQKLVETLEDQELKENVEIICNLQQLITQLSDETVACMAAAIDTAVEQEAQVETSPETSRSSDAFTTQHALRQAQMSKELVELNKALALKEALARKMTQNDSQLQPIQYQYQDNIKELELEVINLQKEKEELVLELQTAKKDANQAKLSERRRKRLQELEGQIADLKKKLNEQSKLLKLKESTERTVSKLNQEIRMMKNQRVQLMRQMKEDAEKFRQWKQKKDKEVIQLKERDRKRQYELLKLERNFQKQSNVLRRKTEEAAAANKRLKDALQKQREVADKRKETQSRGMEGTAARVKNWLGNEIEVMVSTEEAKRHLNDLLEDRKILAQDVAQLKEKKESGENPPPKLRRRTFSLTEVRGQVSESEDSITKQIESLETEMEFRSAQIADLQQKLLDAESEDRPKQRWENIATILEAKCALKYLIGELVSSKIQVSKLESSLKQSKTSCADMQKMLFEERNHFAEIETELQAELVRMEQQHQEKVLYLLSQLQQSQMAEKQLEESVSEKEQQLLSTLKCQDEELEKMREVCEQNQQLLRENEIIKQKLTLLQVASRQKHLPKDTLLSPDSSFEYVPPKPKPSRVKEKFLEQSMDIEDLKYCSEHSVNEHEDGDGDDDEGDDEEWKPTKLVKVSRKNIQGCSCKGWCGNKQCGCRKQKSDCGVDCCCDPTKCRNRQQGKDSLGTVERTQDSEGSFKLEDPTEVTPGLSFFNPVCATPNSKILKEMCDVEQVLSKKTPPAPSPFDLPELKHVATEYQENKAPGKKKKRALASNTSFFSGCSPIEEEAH
Test: TIRF microscopy, time-lapse of transport along microtubules

The chains behind the UniProt entries cited, without tags or fusion partners. Where a name states a change or a piece, a line headed by the entry shows the natural chain unless it says otherwise.
UniProt Q9NQS7: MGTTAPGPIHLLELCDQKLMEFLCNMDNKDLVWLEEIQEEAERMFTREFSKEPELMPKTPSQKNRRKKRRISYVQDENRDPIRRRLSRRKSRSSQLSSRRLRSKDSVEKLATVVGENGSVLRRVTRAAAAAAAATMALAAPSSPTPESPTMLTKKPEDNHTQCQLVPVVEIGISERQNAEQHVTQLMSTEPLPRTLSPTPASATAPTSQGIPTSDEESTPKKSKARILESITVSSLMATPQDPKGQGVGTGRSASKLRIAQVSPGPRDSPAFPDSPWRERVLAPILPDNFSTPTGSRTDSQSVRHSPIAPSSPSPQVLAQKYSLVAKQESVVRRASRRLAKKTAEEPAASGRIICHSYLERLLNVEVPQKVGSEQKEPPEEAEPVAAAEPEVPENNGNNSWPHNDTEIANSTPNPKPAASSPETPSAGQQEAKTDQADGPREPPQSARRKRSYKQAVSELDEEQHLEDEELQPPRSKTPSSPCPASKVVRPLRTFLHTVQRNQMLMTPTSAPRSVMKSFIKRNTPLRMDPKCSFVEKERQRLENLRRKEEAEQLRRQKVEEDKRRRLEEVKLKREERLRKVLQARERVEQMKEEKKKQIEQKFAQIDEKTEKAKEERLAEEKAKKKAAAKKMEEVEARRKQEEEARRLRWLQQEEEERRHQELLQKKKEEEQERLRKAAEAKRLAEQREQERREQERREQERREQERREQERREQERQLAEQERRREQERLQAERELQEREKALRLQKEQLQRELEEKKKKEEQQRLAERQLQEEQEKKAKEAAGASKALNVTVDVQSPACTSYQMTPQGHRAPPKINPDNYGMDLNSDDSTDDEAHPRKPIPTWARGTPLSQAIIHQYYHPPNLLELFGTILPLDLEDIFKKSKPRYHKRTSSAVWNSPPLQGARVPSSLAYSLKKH
UniProt Q96GD4: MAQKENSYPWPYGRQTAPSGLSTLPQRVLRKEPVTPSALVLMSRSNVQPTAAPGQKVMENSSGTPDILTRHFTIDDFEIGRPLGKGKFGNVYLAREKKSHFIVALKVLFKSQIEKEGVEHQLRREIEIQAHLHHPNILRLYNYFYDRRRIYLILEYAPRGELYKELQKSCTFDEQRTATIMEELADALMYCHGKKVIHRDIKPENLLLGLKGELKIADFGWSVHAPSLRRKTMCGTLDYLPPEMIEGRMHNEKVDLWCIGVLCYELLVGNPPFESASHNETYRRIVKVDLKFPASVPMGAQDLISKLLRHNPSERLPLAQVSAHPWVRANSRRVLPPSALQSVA
UniProt Q53HL2: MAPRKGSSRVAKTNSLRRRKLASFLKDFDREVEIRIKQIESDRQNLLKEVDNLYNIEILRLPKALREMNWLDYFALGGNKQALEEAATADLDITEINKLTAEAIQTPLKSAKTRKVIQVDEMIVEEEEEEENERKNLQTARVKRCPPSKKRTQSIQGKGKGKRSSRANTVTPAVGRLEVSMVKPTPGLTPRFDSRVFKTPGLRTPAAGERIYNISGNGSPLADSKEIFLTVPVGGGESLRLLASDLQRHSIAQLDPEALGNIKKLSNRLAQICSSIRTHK
UniProt O15392: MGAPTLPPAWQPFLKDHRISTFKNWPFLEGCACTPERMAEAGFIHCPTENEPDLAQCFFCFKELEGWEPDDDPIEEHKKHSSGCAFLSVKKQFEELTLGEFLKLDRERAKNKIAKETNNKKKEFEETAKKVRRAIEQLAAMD

JFX646-conjugated Halo-CPC (INCENP, Aurora B, Borealin-Halo, Survivin) (from UniProt Q9NQS7;Q96GD4;Q53HL2;O15392) (complex)
binding: binds

Reference: doi:10.1101/2025.09.02.673761 (bioRxiv, 2025)
